The values below come from US7056679.

The chains behind the UniProt entries cited, without tags or fusion partners.
UniProt Q15004: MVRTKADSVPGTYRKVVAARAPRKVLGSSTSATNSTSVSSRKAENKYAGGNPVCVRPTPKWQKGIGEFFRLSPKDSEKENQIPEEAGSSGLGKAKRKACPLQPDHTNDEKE

These are yes or no findings as the source states them, for the method shown. Some entries that bind do so weakly or less than the wild type.

This test addresses DGI-2 (UniProt Q15004). Kind of test: phage ELISA, coated DGI-2. On the technique in general: In an ELISA, binding on a coated surface is turned into a signal by an enzyme label.

For GLYRRAGDASVGFSRWGRFDCQVYFSVECLLGSSWGGYS [DGI-2-40F-4-F12], the binding result is recorded as “binds”.

Take LQIVRPAGWKMPGQVGYYIG [DGI-2-20R-3-A9]: the binding result was “binds”.
